We go through 72 compounds from PubChem BioAssay AID624405 (Broad Institute, 2012).

Each structure is given as a SMILES string. Screen size: about 1,900 compounds; about 250 (13%) were called active. Inconclusive results (about 4%) are left out.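 How the source made its calls: active means fitted curve reaches 40% rescue activity at or below the top valid dose, in every test run; inconclusive means test runs disagree, some active and some inactive; inactive means every run misses the threshold or moves the wrong way.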 This is a selection; strong and weak results do not stand in their true shares. Potency and affinity values are given separately.

The experiment is described as follows: rescue of simvastatin-induced ATP loss – cell-based, C2C12 myotubes, ATP luminescence, cherry pick, dose response (AID 624405).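 Further: myotubes are challenged with simvastatin at 10 µM to lower ATP.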 The conditions noted are these: 48 h, scaled: DMSO wells 0, geranylgeraniol wells 100; at 19.5 µM (top of the series) unless noted.
Regarding `C/C(=N/NC(=O)c1ccc2c(c1)OCO2)c1cccc(NC(=O)C(C)(C)C)c1`, the rescue activity (ATP increase) was inactive: -39.2%.

With `CCN(CC)c1ncnc2c1cnn2Cc1ccc(Cl)cc1`, the rescue activity (ATP increase) was inactive: 29.6%.

As for `CCOC(=O)N1CCN(C(=O)Cn2nc(C)c3sc4ccccc4c3c2=O)CC1`, the rescue activity (ATP increase) is inactive: 11.8%.

As to `C[C@H]1CCCCO[C@H](CN(C)C(=O)C2CCCCC2)[C@@H](C)CN([C@@H](C)CO)C(=O)c2cc(NC(=O)Cc3ccccc3)ccc2O1`, the rescue activity (ATP increase) was inactive: 1.27%.

As to `COc1ccc(COn2c(=O)c(C)[n+]([O-])c3ccccc32)cc1OC`, the rescue activity (ATP increase) is inactive: 15.1%.

For the compound `Cc1ccc(S(=O)(=O)Nc2ccc3c(c2)CC(=O)N([C@@H](C)CO)C[C@@H](C)[C@H](CN(C)Cc2ccc(Cl)c(Cl)c2)O3)cc1`, the rescue activity (ATP increase) is inactive: 29%.

Turning to `COc1cc(/C=C2\SC(=S)N(NC(=O)c3ccc(O)c(OC)c3)C2=O)ccc1O`, the rescue activity (ATP increase) is inactive: -10.6%.

Consider `O=C(c1ccc(CN2CCOCC2)cc1)N1CCN(c2cccc(Cl)c2)CC1`, for which the rescue activity (ATP increase) was inactive: -17.2%.

As to `C[C@@H]1CN([C@H](C)CO)C(=O)Cc2cc(NS(=O)(=O)c3ccc(F)cc3)ccc2O[C@H]1CN(C)Cc1ccc(Oc2ccccc2)cc1`, the rescue activity (ATP increase) was inactive: 33.8% [at 21 µM].

In the case of `CCOCCn1c(COc2ccccc2)nc2ccccc21`, the rescue activity (ATP increase) was inactive: 17.6%.

With `C[C@H]1CN([C@@H](C)CO)S(=O)(=O)c2ccc(-c3ccc(C(=O)N(C)C)cc3)cc2O[C@@H]1CN(C)C(=O)Cc1ccccn1`, the rescue activity (ATP increase) was inactive: 32.9%.

As for `O=C(NCC12CC3CC(CC(C3)C1)C2)c1nn2c(c1Cl)NC(c1ccco1)CC2C(F)(F)F` (configuration not stated), the rescue activity (ATP increase) was inactive: 2.04%.

On to `CCN(C(=O)c1cnc(N2CCN(c3ncccn3)CC2)c2ccccc12)c1cccc(Cl)c1`, for which the rescue activity (ATP increase) is inactive: 28%.

Turning to `CCC1(CC)NC(=O)N(CC(=O)OCC(=O)Nc2ccc(C(F)(F)F)cc2)C1=O`, the rescue activity (ATP increase) was inactive: 23.8%.

For the compound `CC(=O)C[C@@H](O)CC(=O)[C@@H]1OC(=O)CCCCCCc2ccccc21`, the rescue activity (ATP increase) is inactive: 8.12%.

In the case of `C[C@H]1CN([C@@H](C)CO)C(=O)c2cc(NS(=O)(=O)c3ccccc3)ccc2O[C@@H]1CN(C)S(=O)(=O)c1cccs1`, the rescue activity (ATP increase) was inactive: 3%.

For `CC(=O)Nc1ccc(NC(=O)CSc2nnc(C3CC3)n2C)cc1`, the rescue activity (ATP increase) was inactive: 15.5%.

Regarding `CCn1nnnc1SCC(=O)c1ccc(C)cc1C`, the rescue activity (ATP increase) is inactive: -11.8%.

On to `O=C(CSc1nc2c(cnn2-c2ccccc2)c(=O)[nH]1)N1CCOCC1`, for which the rescue activity (ATP increase) was inactive: -32.3%.

Take `COc1ccc(COc2ccccc2C(N)=O)cc1F`: the rescue activity (ATP increase) is inactive: 1.16%.

Turning to `C[C@H](CO)N1C[C@H](C)[C@@H](CN(C)Cc2ccc(-c3ccccc3)cc2)Oc2ccc(NC(=O)CCC(F)(F)F)cc2CC1=O`, the rescue activity (ATP increase) is inactive: 12.5%.

As for `COc1cc(OC)c(C2=NOC(C(=O)N3CCCc4ccccc43)C2)cc1Cl` (configuration not stated), the rescue activity (ATP increase) was inactive: -4.45%.

Consider `CCCCCCCC(=O)N/N=C/c1ccc(Br)cc1`, for which the rescue activity (ATP increase) is inactive: -24.9%.

`CCN1CCN(c2nc3sc4c(c3c3ncnn23)CC(C)CC4)CC1` (configuration not stated): the rescue activity (ATP increase) was inactive: -9.58%.

For `O=C(CSc1nnc(CNc2ccc(F)cc2)n1Cc1ccccc1)N1CCOCC1`, the rescue activity (ATP increase) is inactive: -5.13%.

Turning to `Cc1ccc(S(=O)(=O)Nc2ccc3c(c2)C(=O)N([C@H](C)CO)C[C@H](C)[C@@H](CN(C)Cc2ccc4c(c2)OCO4)OCCCC[C@H](C)O3)cc1`, the rescue activity (ATP increase) is inactive: -2.42%.

As for `C[C@@H]1CCCCO[C@H](CN(C)S(=O)(=O)c2cccs2)[C@@H](C)CN([C@@H](C)CO)C(=O)c2cc(NC(=O)Nc3ccc(F)cc3)ccc2O1`, the rescue activity (ATP increase) was inactive: -8.82%.

With `O=C(Nc1ccccc1)Oc1cccc2cccnc12`, the rescue activity (ATP increase) was inactive: -6.01%.

Consider `Cc1cc(NC(=O)c2cc(-c3cccs3)on2)nn1Cc1ccc(Cl)cc1`, for which the rescue activity (ATP increase) is inactive: 21%.

As to `O=c1[nH]c(Nc2ccccc2Cl)cc2ccccc12`, the rescue activity (ATP increase) is inactive: -28.7%.

Turning to `COc1ccc(CN2[C@@H]3CN(C(=O)c4ccccc4)c4ccccc4[C@@H]3[C@@H]2CO)cc1`, the rescue activity (ATP increase) is inactive: 12.5% [at 21 µM].

For the compound `COc1ccc(NC(=O)N(C)C[C@H]2Oc3c(NC(=O)Nc4cccc5ccccc45)cccc3C(=O)N([C@H](C)CO)C[C@H]2C)cc1`, the rescue activity (ATP increase) is inactive: -7.61%.

As to `COc1ccc(C#Cc2cnc3c(c2)C(=O)N([C@H](C)CO)C[C@@H](C)[C@H](CN(C)C(=O)Nc2cccc(OC)c2)O3)cc1`, the rescue activity (ATP increase) is inactive: 31.8%.

As to `Nc1nc(SCC(=O)Nc2ccc(Cl)cc2)[nH]c(=O)c1-c1ccccc1`, the rescue activity (ATP increase) is inactive: -14.9%.

In the case of `C/C(=N\NC(=O)c1nc(C)cc(C)n1)c1ccccc1`, the rescue activity (ATP increase) is inactive: 17.7%.

In the case of `C[C@@H]1CN([C@H](C)CO)C(=O)Cc2cc(NS(=O)(=O)c3cccs3)ccc2O[C@@H]1CN(C)Cc1ccc(Cl)c(Cl)c1`, the rescue activity (ATP increase) is inactive: 34.7%.

`COc1ccc(C2CC(=O)c3cnc(N)nc3C2)c(OC)c1` (configuration not stated): the rescue activity (ATP increase) was inactive: -0.556%.

For `CCCN1CCN(C(=O)Nc2ccc(C(=O)OCC)cc2)CC1`, the rescue activity (ATP increase) was inactive: -40.1%.

With `C[C@H]1CN([C@@H](C)CO)C(=O)c2cc(NS(=O)(=O)c3ccc(Cl)cc3)ccc2O[C@@H]1CN(C)C(=O)Nc1ccc2c(c1)OCO2`, the rescue activity (ATP increase) was inactive: 3.96% [at 21 µM].

In the case of `CC(C)c1ccc(NC(=O)[C@H]2CSCN2C(=O)[C@@H]2CCC(=O)N2)cc1`, the rescue activity (ATP increase) was inactive: -22.2%.

Regarding `COc1ccc(NC(=O)N2CC[C@@H]3[C@H]2c2cc(C4=CCCCC4)ccc2N(C)[C@H]3CO)cc1`, the rescue activity (ATP increase) is inactive: 33%.

Regarding `O=C(N1CCCCCC1)N1CCN(S(=O)(=O)N2CCCCC2)CC1`, the rescue activity (ATP increase) was inactive: -59.4%.

On to `C[C@H](CO)N1C[C@H](C)[C@@H](CN(C)C(=O)Nc2cccc3ccccc23)OCCCC[C@H](C)Oc2ccc(NS(=O)(=O)c3ccc(Cl)cc3)cc2C1=O`, for which the rescue activity (ATP increase) is inactive: 9.38%.

Turning to `CS(=O)(=O)N1CCN(c2cccc(Cl)n2)CC1`, the rescue activity (ATP increase) was inactive: 38.9%.

As for `CCOc1ccc(NCc2cccn2-c2nnc(N3CCC(C(=O)NCCCN4C(C)CCCC4C)CC3)s2)cc1` (configuration not stated), the rescue activity (ATP increase) is inactive: -20.1%.

As to `CC1CCCCN1S(=O)(=O)c1ccc(C(=O)Nc2sccc2C(N)=O)cc1` (configuration not stated), the rescue activity (ATP increase) was inactive: 39%.

For `Cc1ccc(S(=O)(=O)Nc2ccc3c(c2)CC(=O)N([C@H](C)CO)C[C@@H](C)[C@H](CN(C)Cc2ccc(C(F)(F)F)cc2)O3)cc1`, the rescue activity (ATP increase) is inactive: 35.7% [at 21 µM].

Regarding `Cc1cc(C(=O)OCC(=O)c2c(N)n(C)c(=O)n(C)c2=O)c(C)o1`, the rescue activity (ATP increase) was inactive: -12.8%.

In the case of `C[C@@H]1CCCCO[C@@H](CN(C)C(=O)Nc2cccc3ccccc23)[C@H](C)CN([C@H](C)CO)C(=O)c2cc(NS(=O)(=O)c3ccc(Cl)cc3)ccc2O1`, the rescue activity (ATP increase) is inactive: -2.76%.

For the compound `CC(C)(C)OC(=O)N1CCC(C(=O)N[C@@H](Cc2ccccc2)C(=O)O)CC1`, the rescue activity (ATP increase) is inactive: -16.6%.

As to `CCS(=O)(=O)c1ccc(-c2csc(-c3ccc(Cl)cc3)n2)c(Cl)c1Cl`, the rescue activity (ATP increase) is inactive: -81%.

Regarding `COc1ccc(S(=O)(=O)NNC(=O)c2ccccc2-n2cccc2)cc1`, the rescue activity (ATP increase) was inactive: 5.85%.

Consider `O=C(C[C@@H]1CC[C@H]2[C@@H](COC[C@@H](O)CN2Cc2ccc(Oc3ccccc3)cc2)O1)Nc1nccs1`, for which the rescue activity (ATP increase) was inactive: 15.2%.

For `COc1ccc(CN2CCn3ncc(C(=O)Nc4cccc(C)c4)c3C2=O)cc1`, the rescue activity (ATP increase) is inactive: -56.2%.

On to `COc1ccc(S(=O)(=O)Nc2ccc3c(c2)C(=O)N([C@@H](C)CO)C[C@@H](C)[C@H](CN(C)C(=O)Nc2c(C)noc2C)OCCCC[C@H](C)O3)cc1`, for which the rescue activity (ATP increase) was inactive: 3.09%.

As to `C[C@@H]1CN([C@H](C)CO)C(=O)Cc2cc(NS(=O)(=O)c3cccs3)ccc2O[C@@H]1CN(C)Cc1ccc(-c2ccccc2)cc1`, the rescue activity (ATP increase) is inactive: 40.7%.

On to `Cc1ccc(S(=O)(=O)Nc2cccc3c2O[C@@H](CN(C)Cc2ccc(C(F)(F)F)cc2)[C@H](C)CN([C@@H](C)CO)C3=O)cc1`, for which the rescue activity (ATP increase) is inactive: 20.9% [at 21 µM].

On to `O=C(Nc1nccs1)[C@H]1[C@H](CO)[C@H]2Cn3c(ccc(-c4ccccc4)c3=O)[C@H]2N1CC1CCCC1`, for which the rescue activity (ATP increase) is inactive: 36.7%.

On to `OC[C@H]1[C@@H]2c3ccccc3NC[C@@H]2N1Cc1ccccc1Cl`, for which the rescue activity (ATP increase) is inactive: -11.1%.

Turning to `COc1ccccc1N(CC(=O)Nc1ccc2c(c1)OCCO2)S(C)(=O)=O`, the rescue activity (ATP increase) was inactive: 5.49%.

`CCOc1ccc(CNn2nnnc2N)cc1`: the rescue activity (ATP increase) is inactive: 16.8%.

Turning to `CCCCN(CCCC)S(=O)(=O)c1ccc(NC(=O)CN2CCOCC2)cc1`, the rescue activity (ATP increase) is inactive: 5.03%.

Regarding `Fc1ccccc1COc1ccc(-c2nnn(Cc3ccccc3F)n2)cc1`, the rescue activity (ATP increase) was inactive: -10.4%.

For `Cc1cc(C(=O)Nc2ccc3c(c2)C(=O)N(C)[C@@H]2CC[C@@H](CC(=O)N[C@H](C)c4ccccc4)O[C@@H]2CO3)no1`, the rescue activity (ATP increase) is inactive: 26.1%.

As for `COc1ccc(NC(=O)Nc2ccc3c(c2)C(=O)N([C@H](C)CO)C[C@@H](C)[C@@H](CN(C)Cc2ccc(C(F)(F)F)cc2)OCCCC[C@@H](C)O3)cc1`, the rescue activity (ATP increase) is inactive: -2.15%.

Regarding `COc1ccc(OC)c(S(=O)(=O)Nc2ccccc2C)c1`, the rescue activity (ATP increase) is inactive: 1.7%.

On to `Cc1c(N=Cc2c(O)n(Cc3ccco3)c(=O)c3ccccc23)c(=O)n(-c2ccccc2)n1C`, for which the rescue activity (ATP increase) is inactive: 27.1%.

Turning to `C[C@H]1CN([C@@H](C)CO)S(=O)(=O)c2ccc(-c3cccnc3)cc2O[C@H]1CN(C)C(=O)NC1CCCCC1`, the rescue activity (ATP increase) was inactive: -7.06%.

Consider `Cc1nn(-c2ccccn2)c2c1-c1nc(N)ncc1CC2`, for which the rescue activity (ATP increase) is inactive: 11.7%.

In the case of `Cc1ccc(/C=N/c2sc3c(c2C#N)CCC3)s1`, the rescue activity (ATP increase) was inactive: -27.2%.

For the compound `COc1ccc(NC(=O)N(C)C[C@H]2Oc3ccc(NC(=O)Cn4cnnn4)cc3C(=O)N([C@H](C)CO)C[C@H]2C)cc1`, the rescue activity (ATP increase) was inactive: 2.03%.

As to `C[C@@H]1CN([C@H](C)CO)C(=O)c2cc(NS(=O)(=O)c3ccc(F)cc3)ccc2O[C@@H]1CN(C)Cc1ccc(-c2ccccc2)cc1`, the rescue activity (ATP increase) was inactive: -2.19%.
